The experiment is described as follows: IkB Signaling. To be noted: ABC-DLBCL IkBa-CBG/CBR dual luciferase ratio (green luciferase fused to IkBa over red control in OCI-Ly3 lymphoma cells), 4 h. In short, it runs like this:
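In this assay, an IκBα–CBG68 fusion accumulates when IKK-driven degradation is blocked; native CBR normalizes for cell number. OCI-Ly3 cells were treated 4 h with compound and doxycycline, then green and red light read after Chroma-Glo addition.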

[1] abbreviates: measured here: control luc red channel unless noted.

Structures are written as SMILES. The list shows a part of the results. These are further read-outs of the screen, such as a control signal, another cell line or another target. No call is given for them. Most of these compounds were active or inconclusive in the main read-out, so they are no random draw. Words in brackets tell the shape of the fitted curve; partial curves, single points and poor fits give uncertain potencies.

As to `COc1ccc(NC(=O)c2oc3ccc(S(=O)(=O)N4CCC5(CC4)OCCO5)cc3c2C)cc1Cl`, under setting [1], the AC50 is 12.6 µM [falling, partial curve]. Consider `COc1ccc(NC(=O)C2CCC(CNS(=O)(=O)c3cccs3)CC2)cc1OC` (stereo not drawn), for which, under setting [1], the AC50 is 0.2 µM [rising, partial curve].

As for `CC1CCN(S(=O)(=O)c2cc(Br)cc(C(=O)NC3=NCCS3)c2)CC1`, the half-maximal activity concentration (AC50) under setting [1] is 10 µM [falling, partial curve]. On to `COc1ccccc1CNC(=O)c1cc2ccc3ccc(C)[nH]c3c2n1`, for which, under setting [1], the AC50 was 12.6 µM [falling, partial curve]. Same read-out and setting: then `Cc1ccccc1CSCCNC(=O)CN(c1ccccc1)S(=O)(=O)N(C)C`, with 25.1 µM [falling, partial curve]; and `Cc1cccc(CC(=O)Nc2cccc(-c3nc4cccnc4s3)c2)c1`, with 15.8 µM [rising, partial curve, poor fit]. Same read-out and setting: then `Cc1ccc2occ(CC(=O)N3CCN(c4cccc(Cl)c4)CC3)c2c1`, with 25.1 µM [falling, single point].

As to `CC(=O)Nc1cccc(NC(=O)C(=O)NCCc2csc3nc(-c4ccccc4F)nn23)c1`, under setting [1], the AC50 is 3.16 µM [falling, full curve]. Same read-out and setting: then `CCOC(=O)c1ccccc1NC(=O)c1nn(C)c2c1COc1ccccc1-2`, with 15.8 µM [falling, partial curve]; and `COc1ccccc1N1CCN(S(=O)(=O)c2ccc(-c3cnc(C4CC4)o3)cc2)CC1`, with 39.8 µM [falling, single point].

For the compound `Cc1cccc(C(=O)Nc2cccc(OCc3cc(=O)n4ccccc4n3)c2)c1`, the AC50 under setting [1] is 2.51 µM [falling, full curve]. On the same count and under the same terms, then `Cc1cc(C)c(NC(=O)Cn2c(=O)n(Cc3ccccc3)c(=O)c3c(C)c(C(=O)N(C)C)sc32)c(C)c1`, with 12.6 µM [rising, partial curve]. On the same count and under the same terms, then `COc1cc(OC)c(NC(=O)c2c3c(nc4ccccc24)C(=O)N(C2CCCCC2)C3)cc1Cl`, with 2.51 µM [falling, full curve]. Take `CCC1CCCCN1Cc1cn2c(-c3ccc(Br)cc3)nnc2s1` (stereo not drawn): the concentration at half-maximal activity (AC50) under setting [1] is 1.26 µM [rising, full curve]. The same measure, in the same setting: then `CCSc1nnc(NC(=O)CSc2nccn2-c2cc(C)cc(C)c2)s1`, with 12.6 µM [falling, partial curve]. Same read-out and setting: then `CCCCOC(=O)Sc1nc2ccccc2o1`, with 20 µM [falling, single point]. On the same count and under the same terms, then `CCCN(CCC)C(=O)CSc1nnc2cc(C)c3ccccc3n12`, with 2.51 µM [falling, partial curve]; and `Cc1cc(C)c(Cn2c3ccccc3c3cnn(CC(=O)NCC(C)c4ccccc4)c(=O)c32)c(C)c1` (stereo not drawn), with 1.58 µM [falling, full curve, poor fit]; and `O=C(/C=C/c1ccc(Cl)cc1)Nc1nc(-c2cccs2)ns1`, with 0.0794 µM [rising, full curve, poor fit]. Regarding `COc1cc(OC)c(NC(=O)CCNS(=O)(=O)c2ccc3c(c2)oc(=O)n3C)cc1Cl`, the concentration at half-maximal activity (AC50) under setting [1] was 12.6 µM [falling, partial curve]. The same measure, in the same setting: in the case of `COc1ccc(-n2c(CCC(=O)O)ccc2-c2ccccc2)c(OC)c1` it was 0.316 µM [falling, full curve, poor fit].

Turning to `CC(=O)Nc1ccc(S(=O)(=O)N(Cc2ccccc2)Cc2ccccc2)cc1`, the AC50 under setting [1] is 31.6 µM [falling, single point]. Take `COc1cccc(-c2ccc3c(N)c(C(=O)Nc4ccccc4C)sc3n2)c1`: under setting [1], the AC50 is 39.8 µM [falling, single point].

On to `Cc1ccc(-c2cc3nc(C)cc(NCc4ccco4)n3n2)cc1`, for which, under setting [1], the AC50 was 25.1 µM [falling, single point].

Take `CC(C)CCNC(=O)c1ccc2c(c1)nc1n2CCCCC1`: the AC50 under setting [1] was 39.8 µM [falling, single point].

For `Cc1sc2nc(-c3cccs3)nc(N3CCCN(C)CC3)c2c1C`, under setting [1], the AC50 was 25.1 µM [falling, single point].

For `Nc1ccc2oc(Cc3ccc(Cl)cc3)nc2c1`, under setting [1], the AC50 was 1 µM [falling, partial curve]. Same read-out and setting: in the case of `Cc1cc(-c2ccc(S(=O)(=O)Nc3cccc(Cl)c3C)cc2)on1` it was 1.58 µM [falling, full curve]; in that of `COc1ccc(N(C)C(=O)c2cc3c(s2)-c2ccccc2OC3)cc1`, 39.8 µM [falling, single point]. Same read-out and setting: then `Cc1ccc(Cl)cc1N1CCN(C(=O)C2CCCN(Cc3nc(-c4cccc(Cl)c4)oc3C)C2)CC1` (stereo not drawn), with 15.8 µM [falling, partial curve]. Still for that read-out and setting: then `CCCCNc1nc2c(c(=O)n(Cc3ccccc3)c(=O)n2C)n1C`, with 31.6 µM [falling, partial curve].

Take `Cc1ccc(NC(=O)C2CCCN(S(=O)(=O)c3ccc4c(c3)CCCC(=O)N4)C2)cc1Cl` (stereo not drawn): the AC50 under setting [1] is 25.1 µM [falling, partial curve]. The same measure, in the same setting: in the case of `O=C(c1ccc(Cl)cc1)c1cn(Cc2ccccc2)c2cc3c(cc2c1=O)OCCO3` it was 39.8 µM [falling, single point]; in that of `CCc1ccc(CNC(=O)c2ccc(CS(=O)(=O)Cc3cccc(C)c3)o2)cc1`, 25.1 µM [falling, partial curve].

On to `O=C(NCc1ccc(Cl)cc1)c1ccc2c(c1)N(Cc1ccccc1F)C(=O)c1ccccc1S2=O` (stereo not drawn), for which the AC50 under setting [1] was 0.00631 µM [falling, full curve, poor fit].

Regarding `CCC(C(=O)NCCc1ccc(Cl)cc1)n1ccc2cc(S(=O)(=O)N3CCCCC3)ccc21` (stereo not drawn), the half-maximal activity concentration (AC50) under setting [1] is 10 µM [falling, partial curve]. Same read-out and setting: in the case of `COc1ccc(CCNC(=O)C(=O)NCC(c2cccnc2)N2CCN(c3ccccc3)CC2)cc1` (stereo not drawn) it was 2 µM [rising, partial curve]; in that of `Nc1c(C(=O)Nc2ccccc2)sc2nc(-c3ccco3)ccc12`, 39.8 µM [rising, single point] [measured here: IkB-luc green channel]. Regarding `O=C(NC1CCCCC1)c1ccc(N2CCCC2=O)cc1`, the half-maximal activity concentration (AC50) under setting [1] was 15.8 µM [falling, partial curve]. On the same count and under the same terms, then `COc1ccc(-c2noc(CSc3nnc(-c4ccccc4)n3C)n2)cc1`, with 25.1 µM [falling, single point]; and `CC(=O)N1CCN(c2ccc(OC[C@H]3CO[C@](Cn4ccnc4)(c4ccc(Cl)cc4Cl)O3)cc2)CC1`, with 39.8 µM [falling, partial curve]; and `CCCOC(=O)c1ccc(Nc2c(C(=O)OCC)cnc3c(C)cc(Cl)cc23)cc1`, with 0.126 µM [rising, full curve, poor fit]. As to `Cc1oc2c(cc(NS(=O)(=O)c3ccc(F)cc3)c3ccccc32)c1C(=O)OCc1ccccc1`, under setting [1], the AC50 is 25.1 µM [falling, partial curve]. Same read-out and setting: then `COc1ccc2c(CC(=O)Nc3ccc(OC)c(NS(=O)(=O)c4ccc(F)cc4)c3)coc2c1`, with 10 µM [falling, partial curve]; and `Cc1cccc(-n2cnc3cc(C(=O)NC4CCCCCC4)ccc32)c1`, with 20 µM [falling, partial curve]; and `Cc1cccc(OCC(=O)Nc2ccccc2C(=O)OCc2cc(=O)n3nc(C4CC4)sc3n2)c1`, with 12.6 µM [falling, partial curve]. The same measure, in the same setting: in the case of `Cc1ccc(NC(=O)c2ccc(NS(=O)(=O)c3c(C)noc3C)cc2)cc1C` it was 7.94 µM [falling, partial curve]; in that of `CCn1cc(C(=O)Nc2ccc(C(C)C)cc2)c2cc(OC)c(OC)cc2c1=O`, 5.01 µM [falling, partial curve].

As to `CCOC(=O)c1ccc(NC(=O)c2c(NCc3cc(OC)ccc3OC)sc3c2CCC3)cc1`, the AC50 is, setting by setting: (measured here: IkB-luc green channel) 6.31 µM [rising, single point]; (measured here: control luc red channel) 39.8 µM [falling, single point].

`CCc1cnc2c(c1SCCC(C)C)c(=O)n(C)c(=O)n2C`: the AC50 under setting [1] was 12.6 µM [falling, partial curve]. The same measure, in the same setting: in the case of `COc1cccc(-c2nc(SCC(=O)NC3CCCC3)c(-c3ccc(F)cc3)[nH]2)c1` it was 25.1 µM [falling, partial curve]; in that of `N#Cc1c(N)c(C#N)c(-c2ccc(O)cc2)c2c1CCCC2`, 31.6 µM [falling, single point].

`COC(=O)c1ccc(Nc2ncnc3c2cnn3-c2ccccc2)cc1`: the AC50 under setting [1] was 0.794 µM [falling, full curve].

As for `COc1cc(-c2nnc(SCC(=O)Oc3ccc(C)cc3C)o2)cc(OC)c1OC`, under setting [1], the AC50 is 12.6 µM [falling, partial curve]. Turning to `Nc1ccccc1S[C@@H](C[N+](=O)[O-])c1ccc2c(c1)OCO2`, the half-maximal activity concentration (AC50) under setting [1] is 3.98 µM [rising, partial curve] [measured here: IkB-luc green channel]. The same measure, in the same setting: then `CCOC(=O)C1(C)C=C(Nc2cccc(C)c2)C(=O)N1c1ccccc1` (stereo not drawn), with 7.94 µM [falling, partial curve]; and `Cc1ccc(-n2c(SCc3cn4ccsc4n3)nc3ccccc3c2=O)cc1`, with 25.1 µM [falling, single point]. The same measure, in the same setting: then `CCOC(=O)c1cc(-c2ccc(OC)cc2)n(CCC(=O)Nc2ccc(OC)cc2OC)c1C`, with 15.8 µM [falling, partial curve]; and `CCOc1ccc(C(=O)Nc2ccc3nc(SCC(=O)N(C)c4ccccc4)sc3c2)cc1`, with 3.16 µM [falling, full curve]; and `COc1ccccc1CNC(=O)c1ccc(Nc2nc3ccccc3n3nnnc23)cc1`, with 3.98 µM [falling, full curve]. Same read-out and setting: in the case of `CCOc1ccc(/C=C/c2nc3ccccc3n2S(=O)(=O)c2cccc(Cl)c2)cc1` it was 10 µM [falling, partial curve]. `CCc1ccccc1-n1c2c(cc(-c3nc(-c4ccc(Cl)cc4)cs3)c1=O)C(=O)CC(C)(C)C2`: the AC50 under setting [1] is 39.8 µM [falling, single point].

In general, AC50 refers to the concentration at which the activity in the assay is half-maximal.

These data come from PubChem BioAssay AID445 (National Center for Advancing Translational Sciences (NCATS), 2006).
